The source of these data is the supplement of paper PMC12067093, “Discovery and optimisation of a covalent ligand for TRIM25 and its application to targeted protein ubiquitination” (Chemical Science, 2025).

Sequences of proteins named here, by UniProt entry; tags and fusion partners are left off. A change or cut given only in a name is not applied to a line headed by its entry.
UniProt Q12789: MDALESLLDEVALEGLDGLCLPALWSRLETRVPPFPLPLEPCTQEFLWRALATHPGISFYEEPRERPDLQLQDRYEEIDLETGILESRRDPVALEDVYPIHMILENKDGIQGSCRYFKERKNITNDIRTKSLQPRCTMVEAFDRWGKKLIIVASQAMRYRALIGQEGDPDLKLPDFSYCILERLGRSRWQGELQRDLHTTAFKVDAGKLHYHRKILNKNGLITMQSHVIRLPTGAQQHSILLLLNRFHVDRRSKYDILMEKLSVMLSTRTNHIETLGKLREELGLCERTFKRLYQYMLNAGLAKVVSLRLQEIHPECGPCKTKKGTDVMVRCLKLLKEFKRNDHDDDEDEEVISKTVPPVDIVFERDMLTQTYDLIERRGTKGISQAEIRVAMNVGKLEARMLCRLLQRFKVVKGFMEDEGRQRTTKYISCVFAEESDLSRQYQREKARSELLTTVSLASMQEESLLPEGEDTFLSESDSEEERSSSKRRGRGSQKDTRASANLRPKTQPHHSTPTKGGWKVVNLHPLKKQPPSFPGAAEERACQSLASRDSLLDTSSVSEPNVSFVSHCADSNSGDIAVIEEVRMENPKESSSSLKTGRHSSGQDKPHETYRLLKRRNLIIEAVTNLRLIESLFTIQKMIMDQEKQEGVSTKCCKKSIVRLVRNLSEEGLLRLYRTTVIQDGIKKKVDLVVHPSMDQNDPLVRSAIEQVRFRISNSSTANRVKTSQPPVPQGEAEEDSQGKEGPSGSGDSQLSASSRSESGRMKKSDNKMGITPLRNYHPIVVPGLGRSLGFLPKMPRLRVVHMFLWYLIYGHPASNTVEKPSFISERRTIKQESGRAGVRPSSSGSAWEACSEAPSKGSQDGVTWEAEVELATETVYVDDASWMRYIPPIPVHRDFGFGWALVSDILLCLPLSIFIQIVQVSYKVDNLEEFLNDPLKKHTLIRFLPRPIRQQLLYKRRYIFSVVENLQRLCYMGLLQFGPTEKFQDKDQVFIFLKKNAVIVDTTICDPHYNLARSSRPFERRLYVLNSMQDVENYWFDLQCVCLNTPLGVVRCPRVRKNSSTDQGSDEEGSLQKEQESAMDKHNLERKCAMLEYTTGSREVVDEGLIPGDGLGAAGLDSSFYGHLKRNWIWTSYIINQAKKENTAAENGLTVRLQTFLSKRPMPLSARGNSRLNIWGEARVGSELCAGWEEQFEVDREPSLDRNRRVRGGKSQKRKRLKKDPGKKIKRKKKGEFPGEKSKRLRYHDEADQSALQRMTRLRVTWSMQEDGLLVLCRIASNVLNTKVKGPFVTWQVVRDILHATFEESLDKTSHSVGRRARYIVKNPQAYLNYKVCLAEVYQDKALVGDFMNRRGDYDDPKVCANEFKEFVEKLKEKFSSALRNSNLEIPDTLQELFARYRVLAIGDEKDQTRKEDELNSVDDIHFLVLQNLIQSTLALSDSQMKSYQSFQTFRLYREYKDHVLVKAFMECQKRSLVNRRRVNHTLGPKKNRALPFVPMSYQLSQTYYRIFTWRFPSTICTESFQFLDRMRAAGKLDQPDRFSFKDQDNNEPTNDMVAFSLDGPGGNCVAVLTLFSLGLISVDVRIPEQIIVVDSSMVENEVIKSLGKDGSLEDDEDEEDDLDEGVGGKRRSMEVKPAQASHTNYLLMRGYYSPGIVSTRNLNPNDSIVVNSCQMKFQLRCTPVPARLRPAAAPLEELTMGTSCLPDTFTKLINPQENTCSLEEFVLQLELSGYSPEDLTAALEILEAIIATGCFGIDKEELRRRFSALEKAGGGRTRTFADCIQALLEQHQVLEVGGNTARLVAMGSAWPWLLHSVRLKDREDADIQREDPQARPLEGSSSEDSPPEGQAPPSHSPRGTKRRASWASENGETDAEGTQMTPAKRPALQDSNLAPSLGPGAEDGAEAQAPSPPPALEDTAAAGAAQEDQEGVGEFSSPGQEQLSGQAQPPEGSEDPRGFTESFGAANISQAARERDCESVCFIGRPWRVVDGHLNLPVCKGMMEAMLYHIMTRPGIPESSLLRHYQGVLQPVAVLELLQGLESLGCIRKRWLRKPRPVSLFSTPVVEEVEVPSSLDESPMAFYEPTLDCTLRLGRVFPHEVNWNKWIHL
UniProt O95479: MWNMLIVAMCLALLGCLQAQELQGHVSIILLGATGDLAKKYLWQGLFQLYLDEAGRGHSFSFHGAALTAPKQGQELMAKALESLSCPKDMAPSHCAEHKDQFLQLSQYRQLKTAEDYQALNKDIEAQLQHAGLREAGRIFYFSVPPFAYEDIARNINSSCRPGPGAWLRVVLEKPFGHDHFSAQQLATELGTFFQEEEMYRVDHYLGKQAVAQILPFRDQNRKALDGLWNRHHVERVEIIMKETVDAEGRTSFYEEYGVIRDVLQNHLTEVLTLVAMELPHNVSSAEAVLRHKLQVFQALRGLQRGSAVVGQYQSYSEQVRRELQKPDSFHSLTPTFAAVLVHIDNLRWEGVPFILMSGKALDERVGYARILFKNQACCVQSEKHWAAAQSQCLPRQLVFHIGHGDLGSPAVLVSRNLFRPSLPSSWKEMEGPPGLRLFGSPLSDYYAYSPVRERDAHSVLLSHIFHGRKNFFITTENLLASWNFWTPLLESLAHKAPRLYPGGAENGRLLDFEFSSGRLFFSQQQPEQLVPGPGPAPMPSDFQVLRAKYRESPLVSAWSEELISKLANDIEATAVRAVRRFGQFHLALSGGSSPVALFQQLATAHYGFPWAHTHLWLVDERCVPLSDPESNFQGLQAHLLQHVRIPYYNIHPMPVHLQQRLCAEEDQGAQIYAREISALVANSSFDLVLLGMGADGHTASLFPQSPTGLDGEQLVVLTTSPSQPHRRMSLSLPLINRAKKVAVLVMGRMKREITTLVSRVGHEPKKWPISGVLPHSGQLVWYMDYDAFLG
UniProt Q68CZ6: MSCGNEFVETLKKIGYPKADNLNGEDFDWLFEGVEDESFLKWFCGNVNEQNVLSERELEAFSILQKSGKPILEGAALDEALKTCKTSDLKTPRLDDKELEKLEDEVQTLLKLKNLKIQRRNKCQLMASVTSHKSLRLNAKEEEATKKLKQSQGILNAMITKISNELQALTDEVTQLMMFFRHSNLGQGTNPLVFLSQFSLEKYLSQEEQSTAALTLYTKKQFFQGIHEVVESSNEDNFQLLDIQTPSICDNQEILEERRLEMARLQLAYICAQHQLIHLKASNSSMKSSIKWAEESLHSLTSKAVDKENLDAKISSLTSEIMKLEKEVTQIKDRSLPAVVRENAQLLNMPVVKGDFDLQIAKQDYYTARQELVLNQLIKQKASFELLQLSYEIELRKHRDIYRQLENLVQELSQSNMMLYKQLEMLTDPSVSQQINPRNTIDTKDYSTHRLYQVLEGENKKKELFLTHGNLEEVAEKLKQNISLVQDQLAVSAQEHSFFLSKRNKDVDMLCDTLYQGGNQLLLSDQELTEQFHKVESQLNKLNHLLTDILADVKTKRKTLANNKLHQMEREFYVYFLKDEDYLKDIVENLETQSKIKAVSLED
UniProt P15170, whole entry, looked up: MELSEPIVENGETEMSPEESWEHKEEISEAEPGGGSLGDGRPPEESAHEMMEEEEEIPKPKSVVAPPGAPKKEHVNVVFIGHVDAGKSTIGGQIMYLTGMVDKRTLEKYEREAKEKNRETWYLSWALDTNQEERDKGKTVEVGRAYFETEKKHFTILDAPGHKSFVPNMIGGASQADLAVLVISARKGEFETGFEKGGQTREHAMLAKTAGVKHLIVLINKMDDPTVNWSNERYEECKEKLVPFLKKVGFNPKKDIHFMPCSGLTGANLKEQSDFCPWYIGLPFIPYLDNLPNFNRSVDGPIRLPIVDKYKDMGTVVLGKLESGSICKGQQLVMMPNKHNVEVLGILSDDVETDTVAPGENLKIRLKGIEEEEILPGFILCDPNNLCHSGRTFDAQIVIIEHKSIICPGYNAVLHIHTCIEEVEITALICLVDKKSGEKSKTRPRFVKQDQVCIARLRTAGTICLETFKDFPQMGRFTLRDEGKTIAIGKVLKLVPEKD
UniProt P28799: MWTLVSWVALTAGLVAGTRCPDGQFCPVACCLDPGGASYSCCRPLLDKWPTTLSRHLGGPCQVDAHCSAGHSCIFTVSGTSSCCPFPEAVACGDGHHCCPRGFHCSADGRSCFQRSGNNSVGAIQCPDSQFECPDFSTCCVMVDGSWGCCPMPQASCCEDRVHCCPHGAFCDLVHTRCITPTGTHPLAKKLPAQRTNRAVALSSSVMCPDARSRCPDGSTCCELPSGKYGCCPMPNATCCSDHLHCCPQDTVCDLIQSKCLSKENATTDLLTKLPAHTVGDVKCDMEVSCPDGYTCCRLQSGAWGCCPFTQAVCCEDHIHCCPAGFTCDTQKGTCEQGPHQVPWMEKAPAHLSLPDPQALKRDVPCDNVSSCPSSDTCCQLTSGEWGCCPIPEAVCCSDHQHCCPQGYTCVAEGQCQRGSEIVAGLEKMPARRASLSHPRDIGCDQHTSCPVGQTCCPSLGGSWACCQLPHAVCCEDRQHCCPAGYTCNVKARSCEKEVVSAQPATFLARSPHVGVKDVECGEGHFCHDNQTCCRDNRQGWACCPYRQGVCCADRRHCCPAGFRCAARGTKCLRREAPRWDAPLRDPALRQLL
UniProt P48637: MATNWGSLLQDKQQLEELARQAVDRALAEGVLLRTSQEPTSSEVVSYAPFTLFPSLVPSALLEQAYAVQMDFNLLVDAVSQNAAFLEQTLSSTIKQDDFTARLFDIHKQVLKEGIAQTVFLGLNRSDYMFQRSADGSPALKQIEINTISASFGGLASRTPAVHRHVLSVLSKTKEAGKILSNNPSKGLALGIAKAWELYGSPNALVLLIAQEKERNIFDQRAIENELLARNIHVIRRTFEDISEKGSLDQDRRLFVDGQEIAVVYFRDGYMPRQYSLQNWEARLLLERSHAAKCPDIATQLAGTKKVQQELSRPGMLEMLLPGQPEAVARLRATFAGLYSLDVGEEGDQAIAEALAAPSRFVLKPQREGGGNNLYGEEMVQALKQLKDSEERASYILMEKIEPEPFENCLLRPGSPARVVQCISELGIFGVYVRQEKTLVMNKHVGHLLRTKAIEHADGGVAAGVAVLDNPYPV
UniProt P40939: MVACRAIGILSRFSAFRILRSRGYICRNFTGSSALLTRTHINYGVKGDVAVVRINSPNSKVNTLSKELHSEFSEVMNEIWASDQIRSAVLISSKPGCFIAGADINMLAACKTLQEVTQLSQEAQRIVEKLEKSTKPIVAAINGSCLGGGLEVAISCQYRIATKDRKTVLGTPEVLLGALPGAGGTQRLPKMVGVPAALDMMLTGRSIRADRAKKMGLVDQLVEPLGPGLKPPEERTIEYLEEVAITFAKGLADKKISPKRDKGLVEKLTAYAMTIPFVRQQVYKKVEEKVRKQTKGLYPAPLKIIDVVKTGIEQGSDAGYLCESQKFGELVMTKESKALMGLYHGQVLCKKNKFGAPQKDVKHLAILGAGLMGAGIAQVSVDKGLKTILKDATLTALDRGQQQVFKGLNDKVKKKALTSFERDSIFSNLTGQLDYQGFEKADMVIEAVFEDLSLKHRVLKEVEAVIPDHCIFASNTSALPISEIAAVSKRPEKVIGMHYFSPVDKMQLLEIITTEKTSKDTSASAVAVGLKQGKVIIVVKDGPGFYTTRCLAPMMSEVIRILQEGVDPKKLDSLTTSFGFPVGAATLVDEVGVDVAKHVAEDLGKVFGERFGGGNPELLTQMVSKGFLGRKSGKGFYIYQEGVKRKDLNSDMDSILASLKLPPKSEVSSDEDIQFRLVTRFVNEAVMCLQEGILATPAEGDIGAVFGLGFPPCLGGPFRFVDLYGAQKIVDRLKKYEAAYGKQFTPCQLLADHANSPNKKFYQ
UniProt P21266: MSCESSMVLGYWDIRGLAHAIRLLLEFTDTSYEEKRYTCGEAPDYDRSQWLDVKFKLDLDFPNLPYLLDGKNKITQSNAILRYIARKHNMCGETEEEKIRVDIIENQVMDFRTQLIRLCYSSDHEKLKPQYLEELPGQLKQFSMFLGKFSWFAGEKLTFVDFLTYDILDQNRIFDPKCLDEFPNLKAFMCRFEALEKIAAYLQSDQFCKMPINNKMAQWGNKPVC
UniProt Q969Y2: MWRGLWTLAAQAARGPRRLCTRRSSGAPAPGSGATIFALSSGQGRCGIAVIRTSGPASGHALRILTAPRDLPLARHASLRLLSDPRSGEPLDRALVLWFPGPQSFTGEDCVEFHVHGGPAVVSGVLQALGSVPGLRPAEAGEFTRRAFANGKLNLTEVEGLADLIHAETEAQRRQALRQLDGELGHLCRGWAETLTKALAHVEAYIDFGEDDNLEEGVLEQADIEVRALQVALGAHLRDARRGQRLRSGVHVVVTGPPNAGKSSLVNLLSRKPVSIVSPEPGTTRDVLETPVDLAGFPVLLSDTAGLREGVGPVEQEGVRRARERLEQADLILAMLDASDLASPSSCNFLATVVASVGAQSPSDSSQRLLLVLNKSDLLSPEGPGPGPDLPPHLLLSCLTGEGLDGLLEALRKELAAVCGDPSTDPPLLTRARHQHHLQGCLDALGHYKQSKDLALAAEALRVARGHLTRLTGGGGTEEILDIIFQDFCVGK

Compound in this test: Cc1cc(ccc1-c1ccccc1)C(=O)N1CCCN(CC1)C(=O)CCl [compound 10]
Nature of the test: probe-labelled cysteine peptide fold change vs DMSO (competition) (log2 fold change); higher = less target engagement (more negative = stronger competition). As to conditions: THP-1, incubation time: 4 h.

Some of the results follow.
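Note: competitive profiling in live THP-1 cells: cysteine peptides tagged with an iodoacetamide desthiobiotin (IA-DTB) probe, intensity after compound treatment relative to DMSO-treated cells.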

Consider “HAUS7_Q99871_50_DLNCPFLEGLYITEPK (UniProt Q99871)”, for which the “probe-labelled cysteine peptide fold change” value is, setting by setting: (10 µM) -0.022; (50 µM) -0.0793.
Regarding “GTPBP1_O00178_515_YQAMVHCGSIR (UniProt O00178)”, the “probe-labelled cysteine peptide fold change” value was 0.0647 (10 µM) and -0.0133 (50 µM).
Turning to “GTF2I_P78347_745_CGEALGLK (UniProt P78347)”, the “probe-labelled cysteine peptide fold change” value by setting is: (10 µM) 0.0905; (50 µM) -0.092.
For “GRK2_P25098_72_DFCLNHLEEARPLVEFYEEIKK (UniProt P25098)” the same measures were 0.156 and 0.0802.
For “GTF3C1_Q12789_544_ACQSLASR (UniProt Q12789)” the same measures were -0.312 and -0.43.
As to “GSN_P06396_331_SEDCFILDHGKDGK (UniProt P06396)”, the “probe-labelled cysteine peptide fold change” value is 0.0174 (10 µM) and -0.0746 (50 µM).
For the target “H6PD_O95479_663_LCAEEDQGAQIYAR (UniProt O95479)”, the “probe-labelled cysteine peptide fold change” value was -0.189 (10 µM) and 0.0594 (50 µM).
Turning to “HAUS3_Q68CZ6_271_LQLAYICAQHQLIHLK (UniProt Q68CZ6)”, the “probe-labelled cysteine peptide fold change” value is -0.132 (10 µM) and 0.366 (50 µM).
As for “GSPT1_P15170_381+387_GIEEEEILPGFILCDPNNLCHSGR (UniProt P15170)”, the “probe-labelled cysteine peptide fold change” value (10 µM) turned out to be 0.154 and the “probe-labelled cysteine peptide fold change” value (50 µM) is 0.121.
For “GYS1_P13807_444_QSFPPVCTHNMLDDSSDPILTTIRR (UniProt P13807)” the same measures were -0.0835 and -0.118.
On to “HAGH_Q16775_219_VYCGHEYTINNLK (UniProt Q16775)”, for which the “probe-labelled cysteine peptide fold change” value by setting is: (10 µM) -0.00388; (50 µM) 0.0301.
Regarding “GTF3C3_Q9Y5Q9_239_QAIFCYTK (UniProt Q9Y5Q9)”, the “probe-labelled cysteine peptide fold change” value reads like this: (10 µM) 0.168; (50 µM) 0.00729.
Consider “GRN_P28799_558_HCCPAGFR (UniProt P28799)”, for which the “probe-labelled cysteine peptide fold change” value is -0.086 (10 µM) and -0.27 (50 µM).
For “GSS_P48637_294_CPDIATQLAGTK (UniProt P48637)” the same measures were -0.127 and 0.123.
For “GRAMD1B_Q3KR37_460_ASQESECYVIDAEVLTHDVPYHDYFYTINR (UniProt Q3KR37)” the same measures were -0.242 and 0.0555.
For “GTPBP8_Q8N3Z3_114_IDHAPDLPRPEVCFIGR (UniProt Q8N3Z3)” the same measures were 0.000277 and -0.283.
Consider “HAT1_O14929_27_CNTNTAIELK (UniProt O14929)”, for which the “probe-labelled cysteine peptide fold change” value runs as follows: (10 µM) -0.134; (50 µM) -0.075.
With “GTF3C2_Q8WUA4_469_AHFVYGIACDNGCIWDLK (UniProt Q8WUA4)”, the “probe-labelled cysteine peptide fold change” value (10 µM) was 0.0565 and the “probe-labelled cysteine peptide fold change” value (50 µM) amounted to 0.104.
For “GTF2B_Q00403_34+37_AGDMICPECGLVVGDR (UniProt Q00403)” the same measures were 0.105 and 0.0895.
For “HADHA_P40939_550_CLAPMMSEVIR (UniProt P40939)” the same measures were 0.11 and -0.0394.
For “GTF2B_Q00403_34_AGDMICPECGLVVGDR (UniProt Q00403)” the same measures were 0.179 and 0.198.
As to “GSTM3_P21266_208_IAAYLQSDQFCK (UniProt P21266)”, the “probe-labelled cysteine peptide fold change” value is -0.461 (10 µM) and -0.326 (50 µM).
As to “GRK2_P25098_72_DFCLNHLEEARPLVEFYEEIK (UniProt P25098)”, the “probe-labelled cysteine peptide fold change” value by setting is: (10 µM) -0.0383; (50 µM) 0.0292.
In the case of “GTF3C1_Q12789_317+320_LQEIHPECGPCK (UniProt Q12789)”, the “probe-labelled cysteine peptide fold change” value reads like this: (10 µM) -0.219; (50 µM) -0.678.
For “GTF2I_P78347_903_KITINPGCVVVDGMPPGVSFK (UniProt P78347)” the same measures were 0.0985 and -0.408.
For “GSTCD_Q8NEC7_357_LLTTSTEQHPNLCEVPGVEEQSDPLFIGGPRPTMAK (UniProt Q8NEC7)” the same measures were -0.172 and -0.201.
For “H2AFY_O75367_276_FVIHCNSPVWGADK (UniProt O75367)” the same measures were 0.0554 and 0.233.
Regarding “HBS1L_Q9Y450_491_LCVSDVFK (UniProt Q9Y450)”, the “probe-labelled cysteine peptide fold change” value reads like this: (10 µM) -0.00828; (50 µM) 0.0622.
For “H6PD_O95479_393_HWAAAQSQCLPR (UniProt O95479)” the same measures were -0.203 and 0.0303.
As for “GSS_P48637_409_IEPEPFENCLLRPGSPAR (UniProt P48637)”, the “probe-labelled cysteine peptide fold change” value is -0.136 (10 µM) and -0.000102 (50 µM).
For “HADH_Q16836_211_ALGKHPVSCK (UniProt Q16836)” the same measures were -0.467 and -0.98.
Consider “GRK4_P32298_204_GGFGEVCACQVR (UniProt P32298)”, for which the “probe-labelled cysteine peptide fold change” value is 0.193 (10 µM) and 0.00267 (50 µM).
For “GSTP1_P09211_102_DQQEAALVDMVNDGVEDLRCK (UniProt P09211)” the same measures were 0.0332 and 1.08.
For “GTF3A_Q92664_222_ETHKEEILCEVCR (UniProt Q92664)” the same measures were 0.255 and -0.13.
For “HADHB_P55084_435_FNNWGGSLSLGHPFGATGCR (UniProt P55084)” the same measures were 0.111 and -0.101.
As for “HAUS7_Q99871_119_LGHELMLCAPDDQELLK (UniProt Q99871)”, the “probe-labelled cysteine peptide fold change” value reads like this: (10 µM) 0.186; (50 µM) 0.321.
For “GSPT1_P15170_453_FVKQDQVCIAR (UniProt P15170)” the same measures were -0.29 and -0.5.
For “GTSE1_Q9NYZ3_478_AQRPQSCTSVGR (UniProt Q9NYZ3)” the same measures were 0.154 and 0.0725.
As to “GTF2B_Q00403_37_AGDMICPECGLVVGDR (UniProt Q00403)”, the “probe-labelled cysteine peptide fold change” value by setting is: (10 µM) 0.112; (50 µM) 0.0725.
For “GSTM3_P21266_3_SCESSMVLGYWDIR (UniProt P21266)” the same measures were -0.2 and -0.351.
For “GTPBP3_Q969Y2_188_QLDGELGHLCR (UniProt Q969Y2)” the same measures were -0.0966 and -0.00935.
For “GRPEL1_Q9HAV7_108_LYGIQAFCK (UniProt Q9HAV7)” the same measures were -0.0324 and 0.00756.
Consider “GRWD1_Q9BQ67_66_AQTGAPCLSFDIVR (UniProt Q9BQ67)”, for which the “probe-labelled cysteine peptide fold change” value was 0.302 (10 µM) and -0.137 (50 µM).
For “GPX1_P07203_202_RFQTIDIEPDIEALLSQGPSCA (UniProt P07203)” the same measures were -0.188 and 0.0483.
For “GSDMD_P57764_56_CVNLSIK (UniProt P57764)” the same measures were 0.0791 and -0.362.
Consider “HACL1_Q9UJ83_392_DCFVVSEGANTMDIGR (UniProt Q9UJ83)”, for which the “probe-labelled cysteine peptide fold change” value by setting is: (10 µM) 0.00675; (50 µM) 0.136.
For “GSR_P00390_134_VMWNTAVHSEFMHDHADYGFPSCEGK (UniProt P00390)” the same measures were 0.0219 and 0.103.
Turning to “GTF2H4_Q92759_41_LYGHPATCLAVFR (UniProt Q92759)”, the “probe-labelled cysteine peptide fold change” value reads like this: (10 µM) -0.3; (50 µM) 0.253.
As to “GSDME_O60443_180_CGGIVGIQTK (UniProt O60443)”, the “probe-labelled cysteine peptide fold change” value reads like this: (10 µM) -0.105; (50 µM) -0.495.
For “GPT2_Q8TD30_311_LFLLADEVYQDNVYSPDCR (UniProt Q8TD30)” the same measures were 0.00843 and -0.16.
For “GTF3C1_Q12789_1783_TFADCIQALLEQHQVLEVGGNTAR (UniProt Q12789)” the same measures were -0.0212 and 0.0192.
For “H6PD_O95479_623_CVPLSDPESNFQGLQAHLLQHVR (UniProt O95479)” the same measures were 0.0238 and 0.0929.
For “GRN_P28799_164+165+171_VHCCPHGAFCDLVHTR (UniProt P28799)”, the “probe-labelled cysteine peptide fold change” value (10 µM) is -0.233 and the “probe-labelled cysteine peptide fold change” value (50 µM) was -0.702.
For “HADHA_P40939_97_PGCFIAGADINMLAACK (UniProt P40939)” the same measures were -0.104 and 0.273.
For “GSE1_Q14687_1151_QVLQTQCR (UniProt Q14687)”, the “probe-labelled cysteine peptide fold change” value stood at 0.0388 (10 µM) and 0.108 (50 µM).
For the target “HAUS3_Q68CZ6_3_SCGNEFVETLK (UniProt Q68CZ6)”, the “probe-labelled cysteine peptide fold change” value (10 µM) worked out at 0.0135 and the “probe-labelled cysteine peptide fold change” value (50 µM) amounted to 0.066.
In the case of “GSTM3_P21266_91_KHNMCGETEEEK (UniProt P21266)”, the “probe-labelled cysteine peptide fold change” value is, setting by setting: (10 µM) 0.0537; (50 µM) -0.408.
For “HAUS5_O94927_446_CLEEEVR (UniProt O94927)” the same measures were 0.0741 and -0.0311.
For “HADHA_P40939_349_ALMGLYHGQVLCK (UniProt P40939)”, the “probe-labelled cysteine peptide fold change” value is, setting by setting: (10 µM) -0.165; (50 µM) -0.185.
For “GTPBP2_Q9BX10_36_GAGSSSGCGGPK (UniProt Q9BX10)” the same measures were -0.243 and -0.567.
For “GSTCD_Q8NEC7_571_EHMILCR (UniProt Q8NEC7)” the same measures were 0.138 and -0.165.
For “GSK3B_P49841_335_LTPLEACAHSFFDELRDPNVK (UniProt P49841)” the same measures were 0.133 and 0.0393.
Take “GTPBP3_Q969Y2_46_CGIAVIR (UniProt Q969Y2)”: the “probe-labelled cysteine peptide fold change” value is, setting by setting: (10 µM) -0.0828; (50 µM) -0.0921.
For “HCCS_P53701_176+178_WEALHAAECPCGPSLIR (UniProt P53701)” the same measures were 0.0448 and -0.686.
For “GRN_P28799_335_GTCEQGPHQVPWMEK (UniProt P28799)” the same measures were -0.31 and -0.373.
For “GSN_P06396_331_SEDCFILDHGK (UniProt P06396)” the same measures were 0.0864 and -0.0241.
